Assay results published in paper PMC6039025.
Results are given in words; binding and its absence hold for the method and conditions named. Some binding calls cover weakened binding; strength is not graded here. Sequences can lack the tags named with a protein. Each block holds one binder with its values, some of them ahead of it.

Biological target: T1, Smc4-L1335A, 3xStrepTagII-tagged (S. cerevisiae) (UniProt Q12267)
T1 sequence: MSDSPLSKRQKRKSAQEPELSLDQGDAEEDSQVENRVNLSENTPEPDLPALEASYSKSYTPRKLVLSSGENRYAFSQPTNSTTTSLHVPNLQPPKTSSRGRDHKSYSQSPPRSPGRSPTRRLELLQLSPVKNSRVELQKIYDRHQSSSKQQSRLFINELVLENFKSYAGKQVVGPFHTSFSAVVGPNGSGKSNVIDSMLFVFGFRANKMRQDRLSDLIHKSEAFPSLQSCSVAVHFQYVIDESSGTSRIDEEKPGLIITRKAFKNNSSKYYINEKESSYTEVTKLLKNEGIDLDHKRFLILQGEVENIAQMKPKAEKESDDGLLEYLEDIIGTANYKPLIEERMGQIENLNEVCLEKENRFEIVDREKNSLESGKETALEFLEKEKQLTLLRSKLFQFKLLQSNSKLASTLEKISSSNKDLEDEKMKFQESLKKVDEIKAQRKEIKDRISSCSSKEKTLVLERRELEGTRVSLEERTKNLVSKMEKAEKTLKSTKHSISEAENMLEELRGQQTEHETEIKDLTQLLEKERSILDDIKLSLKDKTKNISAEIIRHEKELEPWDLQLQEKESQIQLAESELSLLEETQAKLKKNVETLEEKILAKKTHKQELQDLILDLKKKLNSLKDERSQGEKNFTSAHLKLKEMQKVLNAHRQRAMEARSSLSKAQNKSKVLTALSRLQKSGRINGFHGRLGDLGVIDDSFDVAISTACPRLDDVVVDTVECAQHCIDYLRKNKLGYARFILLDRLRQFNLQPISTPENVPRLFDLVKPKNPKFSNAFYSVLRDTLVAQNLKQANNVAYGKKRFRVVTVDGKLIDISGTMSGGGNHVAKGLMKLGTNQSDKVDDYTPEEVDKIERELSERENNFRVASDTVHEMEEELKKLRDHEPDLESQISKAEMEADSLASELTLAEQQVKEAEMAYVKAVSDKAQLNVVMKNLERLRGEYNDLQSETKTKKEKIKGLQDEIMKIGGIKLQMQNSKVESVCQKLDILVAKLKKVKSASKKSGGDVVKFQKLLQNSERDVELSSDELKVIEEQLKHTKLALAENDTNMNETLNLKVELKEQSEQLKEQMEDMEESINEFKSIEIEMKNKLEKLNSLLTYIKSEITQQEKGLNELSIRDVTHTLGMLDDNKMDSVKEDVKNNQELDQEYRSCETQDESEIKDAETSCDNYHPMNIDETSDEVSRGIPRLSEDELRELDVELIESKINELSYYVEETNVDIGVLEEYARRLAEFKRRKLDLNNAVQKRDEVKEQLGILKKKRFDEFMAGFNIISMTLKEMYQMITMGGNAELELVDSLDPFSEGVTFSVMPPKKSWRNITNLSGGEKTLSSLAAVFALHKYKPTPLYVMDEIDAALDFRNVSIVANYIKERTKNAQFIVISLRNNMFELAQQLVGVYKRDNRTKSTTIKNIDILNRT
Assay: tandem affinity co-purification (Ni-NTA, Strep-Trap) + SEC; five condensin subunits co-overexpressed in yeast; extract in 500 mM NaCl, 10 mM Tris-HCl pH 8.0, 10% glycerol; Ni-NTA (His tags on Brn1 and Ycg1), then Strep-Trap HP (3xStrepTagII on Smc4), then Superose 6 10/300 in 200 mM NaCl, 50 mM Tris-HCl pH 8.0; subunits seen by SDS-PAGE and Coomassie staining

binding: binds
B1: Ycg1-3xFLAG-9xHIS (protein, UniProt Q06680 1-1035)
chain: MQDPDGIDINTKIFNSVAEVFQKAQGSYAGHRKHIAVLKKIQSKAVEQGYEDAFNFWFDKLVTKILPLKKNEIIGDRIVKLVAAFIASLERELILAKKQNYKLTNDEEGIFSRFVDQFIRHVLRGVESPDKNVRFRVLQLLAVIMDNIGEIDESLFNLLILSLNKRIYDREPTVRIQAVFCLTKFQDEEQTEHLTELSDNEENFEATRTLVASIQNDPSAEVRRAAMLNLINDNNTRPYILERARDVNIVNRRLVYSRILKSMGRKCFDDIEPHIFDQLIEWGLEDRELSVRNACKRLIAHDWLNALDGDLIELLEKLDVSRSSVCVKAIEALFQSRPDILSKIKFPESIWKDFTVEIAFLFRAIYLYCLDNNITEMLEENFPEASKLSEHLNHYILLRYHHNDISNDSQSHFDYNTLEFIIEQLSIAAERYDYSDEVGRRSMLTVVRNMLALTTLSEPLIKIGIRVMKSLSINEKDFVTMAIEIINDIRDDDIEKQEQEEKIKSKKINRRNETSVDEEDENGTHNDEVNEDEEDDNISSFHSAVENLVQGNGNVSESDIINNLPPEKEASSATIVLCLTRSSYMLELVNTPLTENILIASLMDTLITPAVRNTAPNIRELGVKNLGLCCLLDVKLAIDNMYILGMCVSKGNASLKYIALQVIVDIFSVHGNTVVDGEGKVDSISLHKIFYKVLKNNGLPECQVIAAEGLCKLFLADVFTDDDLFETLVLSYFSPINSSNEALVQAFAFCIPVYCFSHPAHQQRMSRTAADILLRLCVLWDDLQSSVIPEVDREAMLKPNIIFQQLLFWTDPRNLVNQTGSTKKDTVQLTFLIDVLKIYAQIEKKEIKKMIITNINAIFLSSEQDYSTLKELLEYSDDIAENDNLDNVSKNALDKLRNNLNSLIEEINERSETQTKDENNTANDQYSSILGNSFNKSSNDTIEHAADITDGNNTELTKTTVNISAVDNTTEQSNSRKRTRSEAEQIDTSKNLENMSIQDTSTVAKNVSFVLPDEKSDAMSIDEEDKDSESFSEVC

binding: binds
B4: Ycs4 (protein, UniProt Q06156 1-1176)
chain: MSGFSLSEYLTKFQTTDRESYPRLQDPSRELNVIIDQLAVSPEQIDASPDSLEALIDLCHDFPHLTPKLQTQLSYLISSSLSNLSKDIKANLSSNVNFTEIGGLIPQWKRHLEEYGYLIQVLLTFLQDELHKVSSQSTNLNRSAKNSKNDSANVELFKRDCNQMENLLESITKLLEINLSKIFQTTPEKDLFIGLFTRPLFVLLEIEPVTKVSSLKMFIQRILAMCVKNHGQSSSIQSSLMTNLTYFLHLSVFNAELLKLLNDEYNYPQLTEDILKEISTRVFNAKDTTGPKAISNFLIKLSELSPGIMLRQMNLVITLLNNSSITLRCSVVEACGNIVAELAQDPQTMEHYKQQIAVLIELLEERFQDSNPYVRTKAIQGCSKICDLSSKFNKSKAKFTSLAVRSLQDRSSLVRRNSVKLLSKLLLKHPFKAIHGSQLRLSEWEEYLKGSESQLNSTLKKVESQETLNDTIERSLIEEEVEQDEGQCRTELEGSFNKSAELSRIENEVENINATNTSVLMKLKLMIVYYKDAISFIKEIHKSIELISNLLFSKNRNEVLESMDFLVLADAFDIELSEFGIKKMLHLVWMKGTNDEGTSISVHLIECYKQLFLTAPDSCNMQEKAAHIAKNLINLSIGASIADLASLEQLLGMMYEQKLIDQHVINILWAIYNSASKASMQKEQNVNNRDSEKGFSKEQIHGSIIILGMLSLADNEIALKGLESLLNIGLGAVGLKDLTLCRYSCLALERMVPKRSTIITKAINQELEDVAVKKLYAIIINYTKDNEYYPMCEQALSALFTISSKPDILATDLIREKTMMTFGKPEEEDSILSLEQSSRVVSLSQLLFIVGQVAIKTLVYLEKCEAEFKKRKIEAETRNGKVKNQGADVTNTTQDNGGDKELEMIGGTNEDDFTDAIQFVKENELLFGEKSILGKFCPIVEEIVSNSSRFSDPMLQRTATLCLEKLMCLSSKYCEKSLPLLITVMEKSPDPTIRSNAVLGLGDMAVCFNNLVDENTDYLYRRLHDENLMVQRTCLMTVTFLILAGQVKVKGQLGEMAKCLDNPDQGISDMCRLFFTELASKDNAIYNGFIDIFSNLSSDDLLGKESFKKIIKFLLTFIDKERHQKQLNEKLVGRLRKCETQKQWDDIAFVLNNLPYKNEDVTALLEQGFKVVSAKE

The next lines start with the binder.

B2: Brn1-3xHA-12xHIS (protein, UniProt P38170 1-754)
chain: MTTQLRYENNDDDERVEYNLFTNRSTMMANFEEWIKMATDNKINSRNSWNFALIDYFYDLDVLKDGENNINFQKASATLDGCIKIYSSRVDSVTTETGKLLSGLAQRKTNGASNGDDSNGGNGEGLGGDSDEANIEIDPLTGMPISNDPDVNNTRRRVYNRVLETTLVEFETIKMKELDQELIIDPLFKKALVDFDEGGAKSLLLNTLNIDNTARVIFDASIKDTQNVGQGKLQRKEEELIERDSLVDDENEPSQSLISTRNDSTVNDSVISAPSMEDEILSLGMDFIKFDQIAVCEISGSIEQLRNVVEDINQAKDFIENVNNRFDNFLTEEELQAAVPDNAEDDSDGFDMGMQQELCYPDENHDNTSHDEQDDDNVNSTTGSIFEKDLMAYFDENLNRNWRGREHWKVRNFKKANLVNKESDLLEETRTTIGDTTDKNTTDDKSMDTKKKHKQKKVLEIDFFKTDDSFEDKVFASKGRTKIDMPIKNRKNDTHYLLPDDFHFSTDRITRLFIKPGQKMSLFSHRKHTRGDVSSGLFEKSTVSANHSNNDIPTIADEHFWADNYERKEQEEKEKEQSKEVGDVVGGALDNPFEDDMDGVDFNQAFEGTDDNEEASVKLDLQDDEDHKFPIRENKVTYSRVSKKVDVRRLKKNVWRSINNLIQEHDSRKNREQSSNDSETHTEDESTKELKFSDIIQGISKMYSDDTLKDISTSFCFICLLHLANEHGLQITHTENYNDLIVNYEDLATTQAAS
binding: binds

B3: Smc2 (protein, UniProt P38989 1-1170)
chain: MKVEELIIDGFKSYATRTVITDWDPQFNAITGLNGSGKSNILDAICFVLGIASMSTVRASSLQDLIYKRGQAGVTKASVTIVFDNTDKSNSPIGFTNSPQISVTRQVVLGGTSKYLINGHRAPQQSVLQLFQSVQLNINNPNFLIMQGKITKVLNMKPSEILSLIEEAAGTKMFEDRREKAERTMSKKETKLQENRTLLTEEIEPKLEKLRNEKRMFLEFQSTQTDLEKTERIVVSYEYYNIKHKHTSIRETLENGETRMKMLNEFVKKTSEEIDSLNEDVEEIKLQKEKELHKEGTISKLENKENGLLNEISRLKTSLSIKVENLNDTTEKSKALESEIASSSAKLIEKKSAYANTEKDYKMVQEQLSKQRDLYKRKEELVSTLTTGISSTGAADGGYNAQLAKAKTELNEVSLAIKKSSMKMELLKKELLTIEPKLKEATKDNELNVKHVKQCQETCDKLRARLVEYGFDPSRIKDLKQREDKLKSHYYQTCKNSEYLKRRVTNLEFNYTKPYPNFEASFVHGVVGQLFQIDNDNIRYATALQTCAGGRLFNVVVQDSQTATQLLERGRLRKRVTIIPLDKIYTRPISSQVLDLAKKIAPGKVELAINLIRFDESITKAMEFIFGNSLICEDPETAKKITFHPKIRARSITLQGDVYDPEGTLSGGSRNTSESLLVDIQKYNQIQKQIETIQADLNHVTEELQTQYATSQKTKTIQSDLNLSLHKLDLAKRNLDANPSSQIIARNEEILRDIGECENEIKTKQMSLKKCQEEVSTIEKDMKEYDSDKGSKLNELKKELKLLAKELEEQESESERKYDLFQNLELETEQLSSELDSNKTLLHNHLKSIESLKLENSDLEGKIRGVEDDLVTVQTELNEEKKRLMDIDDELNELETLIKKKQDEKKSSELELQKLVHDLNKYKSNTNNMEKIIEDLRQKHEFLEDFDLVRNIVKQNEGIDLDTYRERSKQLNEKFQELRKKVNPNIMNMIENVEKKEAALKTMIKTIEKDKMKIQETISKLNEYKRETLVKTWEKVTLDFGNIFADLLPNSFAKLVPCEGKDVTQGLEVKVKLGNIWKESLIELSGGQRSLIALSLIMALLQFRPAPMYILDEVDAALDLSHTQNIGHLIKTRFKGSQFIVVSLKEGMFANANRVFRTRFQDGTSVVSIM
binding: binds
